This is one part of the list.
Each sequence was assayed against OsWRKY34 (Oryza sativa, UniProt Q0JBA9 1-250) (assay: protein-binding microarray (RPBM); PBS, 2% BSA, 51.3 ng/ul salmon testes DNA, 50 uM zinc acetate, 200 nM TF, 25 C, 1 h; high values mean tight binding). Conditions: protein: recombinant; tags: N-terminal polyhistidine and DsRed monomer fusion (pET32a); label: CyDye5-dUTP incorporated in the synthesized complementary strand; 3' TTTTT single-stranded linker to array surface; dsDNA, one strand shown.
How it was run: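 The binding signal is fluorescence intensity per array feature (arbitrary units). Readings came from an Axon 4000B scanner after a washed, 2% BSA-blocked, double-stranded custom Agilent array had been incubated for 1 h at 25 °C with 200 nM protein and 50 µM zinc acetate. The protein was a Ni–NTA-purified transcription factor fused N-terminally to polyhistidine and DsRed, expressed in E. coli BL21-CodonPlus.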

Amino acid sequences for entries named in this document (tags omitted).
UniProt Q0JBA9, entry or part of it: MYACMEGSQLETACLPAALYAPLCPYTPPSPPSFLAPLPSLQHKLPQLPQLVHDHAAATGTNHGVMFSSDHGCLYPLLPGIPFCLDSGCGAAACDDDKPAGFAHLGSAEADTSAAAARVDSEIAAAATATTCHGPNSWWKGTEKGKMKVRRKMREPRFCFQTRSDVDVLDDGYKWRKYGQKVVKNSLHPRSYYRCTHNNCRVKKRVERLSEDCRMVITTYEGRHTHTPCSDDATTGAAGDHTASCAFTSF

Row | Sequence | binding signal
1 | TCTCACGTACACCTCCGGTTTCTGATTCTTGCTTCGTGTGCGGAGTCACCTAGTGCAG | 9430 fluorescence intensity (a.u.)
2 | GTCGCCATCTTCCCATCCCCGCGCCGCCGTCCACCATGAGCGGAGTCACCTAGTGCAG | 17200 fluorescence intensity (a.u.)
3 | CTGGGGAGCGGGTGGGCTGTCTGCATTGTTTAGCCCATGACGGAGTCACCTAGTGCAG | 16100 fluorescence intensity (a.u.)
4 | GGCCAACTCATTGCTACTCGGTGGTTTCAATCTTGAGGATCGGAGTCACCTAGTGCAG | 8070 fluorescence intensity (a.u.)
5 | CTGAGGGTTATGGTTTTGTTGAGTTCTTTTCTCATGCATCCGGAGTCACCTAGTGCAG | 10600 fluorescence intensity (a.u.)
6 | TCAGGAAAGGTTAGTCATGCTTCAATTTCTCCCGTGCATGCGGAGTCACCTAGTGCAG | 8110 fluorescence intensity (a.u.)
7 | GACGAATTACTTGTTTAAACGAAACGGATTGGGGTTTTCTCGGAGTCACCTAGTGCAG | 9240 fluorescence intensity (a.u.)
8 | TTTTGCTTCTCAAGAACTTGTCACTGCTCCTCGGTCAAATCGGAGTCACCTAGTGCAG | 9780 fluorescence intensity (a.u.)
9 | TATAACATATGTCCCTTTTTTTCAATCCTGCTTACTAAAACGGAGTCACCTAGTGCAG | 10100 fluorescence intensity (a.u.)
10 | TTCATCTTATTTAATTTTTTTTTATGATTAGGATTTTTATCGGAGTCACCTAGTGCAG | 8110 fluorescence intensity (a.u.)
11 | GAGAGAGAGAACGAGGAAGGCCAAAATTGACTTTTATTCGCGGAGTCACCTAGTGCAG | 8480 fluorescence intensity (a.u.)
12 | CCCTCGCGTCTCGTTGCGATCTCACCTTACGACGATCTCGCGGAGTCACCTAGTGCAG | 8540 fluorescence intensity (a.u.)
13 | GAGCGCGCGCCGTCGTCGTCGTCGTTTCGGTTGTTGTCGTCGGAGTCACCTAGTGCAG | 8760 fluorescence intensity (a.u.)
14 | TGTTGCTTCTTCTAGTCCGCCCCGAGAGTCACGTGACACCCGGAGTCACCTAGTGCAG | 8080 fluorescence intensity (a.u.)
15 | ACCCTGCCAATTCACGTGTTGTAGATCTTTTTTTTTCACTCGGAGTCACCTAGTGCAG | 9750 fluorescence intensity (a.u.)
16 | GCGTGCTGCAACCTGGGATTTTCTTTTTTCTTTTTTTTCTCGGAGTCACCTAGTGCAG | 11700 fluorescence intensity (a.u.)
17 | TACTTATCCACCGCTTTTTTGCTTTGGCCCTCTCATTCCTCGGAGTCACCTAGTGCAG | 8660 fluorescence intensity (a.u.)
18 | CAACCGGCCTTAGCCTAGAGCCGCGACCCTGCTCTACTCACGGAGTCACCTAGTGCAG | 8020 fluorescence intensity (a.u.)
19 | TTGCGCGCACCGTTTTTTTGACAAATTGACCCTTTTCAAACGGAGTCACCTAGTGCAG | 8400 fluorescence intensity (a.u.)
20 | GTTGGAGCAGGAGCAGCTCTCGTCCTCCCTACCGCCAGCACGGAGTCACCTAGTGCAG | 8540 fluorescence intensity (a.u.)
21 | TTGTTCTTCTCGCGTCCAAGCGTGTGTGTGTTGCAGGTTTCGGAGTCACCTAGTGCAG | 8850 fluorescence intensity (a.u.)

Row | Sequence | binding signal
22 | CGCCGCCGCCGCTTCCGCTCTCCTCTCCATCTCTCCCGCCCGGAGTCACCTAGTGCAG | 9340 fluorescence intensity (a.u.)
23 | CTCCCGGCGCCGCCCGTCAACCGCTCCGTCCTCGGCCTTTCGGAGTCACCTAGTGCAG | 8660 fluorescence intensity (a.u.)
24 | TGGCCTTATATGTTGCTTGCCCTGATTCAAAAGTGGGCTACGGAGTCACCTAGTGCAG | 8460 fluorescence intensity (a.u.)
25 | GGCCGGAGGGGAAGGGGCGGCCAGCGGTCTGCGATGGTGACGGAGTCACCTAGTGCAG | 9360 fluorescence intensity (a.u.)
26 | CGGAAGCTTCTACTACTCGCATTCGATTCTTCTTCCATTCCGGAGTCACCTAGTGCAG | 10700 fluorescence intensity (a.u.)
27 | AACGACCCTGACTCAATTCAAGCGCATATCAAATGCACAACGGAGTCACCTAGTGCAG | 8360 fluorescence intensity (a.u.)
28 | TCTCTCTCTCTCTCTCTCTCTTCTGACTTAGCTTTGTCAACGGAGTCACCTAGTGCAG | 10700 fluorescence intensity (a.u.)
29 | ATGAATTCATTCCTATTTGATGTTTGTGATTTGGATCCCACGGAGTCACCTAGTGCAG | 9270 fluorescence intensity (a.u.)
30 | CACATGCACTCCACACTTACTCCCTCAGTACTAAAAAAACCGGAGTCACCTAGTGCAG | 8210 fluorescence intensity (a.u.)
31 | GTTTACTCCAAGATTCACATTTGACTTTCTTATGCCATAGCGGAGTCACCTAGTGCAG | 9170 fluorescence intensity (a.u.)
32 | ACCCAAACTATATAGTTTAGCTGCAAACTTCAGTCTTTTTCGGAGTCACCTAGTGCAG | 8560 fluorescence intensity (a.u.)
33 | TGGCGTGGTCTCGTCTCTTCGTCTTCGGGTGTGCTCACCGCGGAGTCACCTAGTGCAG | 9650 fluorescence intensity (a.u.)
34 | GCGCAACCTCGTCTCCGCCCCACTCGCCGAAAATATAAATCGGAGTCACCTAGTGCAG | 9970 fluorescence intensity (a.u.)
35 | CCCCGTTTTATTATTGCCGAATCCATGTTTCGACATAAACCGGAGTCACCTAGTGCAG | 9950 fluorescence intensity (a.u.)
36 | CTTTTTTTTCTAAACTCTCATCTCACTTCGTCAGTTCGTCCGGAGTCACCTAGTGCAG | 8740 fluorescence intensity (a.u.)
37 | ACTCTCTCCATCCCATTTTGAGTGCAACCATGAGTTTCCGCGGAGTCACCTAGTGCAG | 8640 fluorescence intensity (a.u.)
38 | CAGCAGTACCTTGTTATGCCTATATACGTTCTAAAGTATACGGAGTCACCTAGTGCAG | 8460 fluorescence intensity (a.u.)
39 | ACCATTCTCATGTAGACGTTCTCTTTTCTTTTGCTAGTCACGGAGTCACCTAGTGCAG | 9600 fluorescence intensity (a.u.)
40 | CACTTGTTTTCACTATGTCCACACGACTTTTTTCTTTAGACGGAGTCACCTAGTGCAG | 9210 fluorescence intensity (a.u.)
41 | AGAGCTGCTAATTTTTTTCTTTCCTTTTGTGTTGTTTCCCCGGAGTCACCTAGTGCAG | 8540 fluorescence intensity (a.u.)
42 | ACTGTTCAGGATGATCATCCCTTATGCTGCTTCTGTTGGTCGGAGTCACCTAGTGCAG | 9340 fluorescence intensity (a.u.)

A second format for part of the listing above:

| Row | Sequence | binding signal |
| --- | --- | --- |
| 37 | ACTCTCTCCATCCCATTTTGAGTGCAACCATGAGTTTCCGCGGAGTCACCTAGTGCAG | 8640 fluorescence intensity (a.u.) |
| 38 | CAGCAGTACCTTGTTATGCCTATATACGTTCTAAAGTATACGGAGTCACCTAGTGCAG | 8460 fluorescence intensity (a.u.) |
| 39 | ACCATTCTCATGTAGACGTTCTCTTTTCTTTTGCTAGTCACGGAGTCACCTAGTGCAG | 9600 fluorescence intensity (a.u.) |

Source: PMC7819943, “Rice protein-binding microarrays: a tool to detect cis-acting elements near promoter regions in rice”
